Data taken from patent publication US20050153033A1, “Lactic acid bacteria for the treatment of food” (priority 2003, published 2005).
For at least one compound, name, drawing or mass did not settle the structure.

Tested on: C. maltaromaticum strains (CB1, CB2, CB3, LV17, UAL26, ATCC 35586 and ATCC43225)
Assay: Antibiotic resistance, overall statement for the strains tested
Type: cell-based, Carnobacterium maltaromaticum
Details: overall statement on Table 3
From the text: The strains specified in this GRAS document (e.g., Carnobacterium maltaromaticum strains CB1, CB2, CB3, LV17, UAL26, ATCC 35586 AND ATCC43225) have been tested for their resistance to 27 antibiotics (Table 3; Griffiths Labs, 2004).

| SMILES | Sensitivity of the C. maltaromaticum strains tested, overall |
| --- | --- |
| C[C@@H](O)[C@H]1C(=O)N2C(C(=O)O)=C(SCCN=CN)C[C@H]12 [Imipenem] | sensitive |
| CN(C)[C@@H]1C(O)=C(C(N)=O)C(=O)[C@@]2(O)C(O)=C3C(=O)c4c(O)cccc4[C@@](C)(O)[C@H]3C[C@@H]12 [Tetracycline] | sensitive |
